# Assay: Diesel fuel oxidative stability test (Modified ASTM 2274, 40 hours)
# Conditions: additive 15 ppm in diesel oil, untreated fuel 2.5
# Description: Fuel composition samples of diesel oil (Gulf Coast - 0.4% Sulfur, Howell) containing various concentrations of additives as indicated in Table m were prepared. Diesel Fuel oxidative stability tests were performed using a Modified ASTM 2274 Test Method. The ASTM method was modified by changing the test duration from 16 hours to 40 hours. The oxidation stability of the fuel compositions is shown in Table III as the amount of insolubles present.
row,SMILES,Insolubles mg/100 mL [mg/100 mL]
1,CCCCC(CC)CN (stereo not shown) [2-ethylhexylamine],2.2
2,CC(C)CCCCCCN [iso-nonylamine],2.1
3,"CC(C)(C)CC(C)(C)N [Primene® TOA, t-octyl primary amine]",0.4
4,CCCCCCCCCN [n-nonylamine],1.9

# Source: patent EP0890570A2, “Tertiary alkyl primary amines and process for preparing the same” (ROHM AND HAAS COMPANY, priority 1997, dated 1999)
